Data published in article PMC9820335.
These are yes or no findings as the source states them, for the method shown. Binding seen in cells or lysates may run through a third protein. Tags and fused reporters may be left off the sequences shown.

The chains behind the UniProt entries cited, without tags or fusion partners. Where a name states a change or a piece, a line headed by the entry shows the natural chain unless it says otherwise.
UniProt P62508: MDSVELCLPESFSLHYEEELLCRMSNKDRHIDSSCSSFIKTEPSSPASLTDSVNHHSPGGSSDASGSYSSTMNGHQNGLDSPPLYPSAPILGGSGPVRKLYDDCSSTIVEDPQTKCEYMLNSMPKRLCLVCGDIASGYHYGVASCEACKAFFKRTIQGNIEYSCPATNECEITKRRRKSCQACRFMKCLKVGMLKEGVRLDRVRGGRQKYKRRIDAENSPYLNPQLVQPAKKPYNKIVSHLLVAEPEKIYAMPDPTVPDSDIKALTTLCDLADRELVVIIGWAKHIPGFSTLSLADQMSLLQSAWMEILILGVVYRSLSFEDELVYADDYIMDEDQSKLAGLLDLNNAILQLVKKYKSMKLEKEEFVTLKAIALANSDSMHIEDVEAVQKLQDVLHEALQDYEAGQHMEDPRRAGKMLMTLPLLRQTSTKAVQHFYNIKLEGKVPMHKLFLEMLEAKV

Molecular target: FLAG-ERRγΔH12 (UniProt P62508)
Test: co-IP; 293T cells co-transfected, treated with vehicle or GSK5182 (10 µM) for 18 h; lysates immunoprecipitated with anti-FLAG (FLAG-ERRγ forms as bait), immunoblotting for the tagged partner

binding: no binding
B1: HA-SMILE (small heterodimer partner-interacting leucine zipper protein) (protein, UniProt Q9NS37 1-354)
chain: MRHSLTKLLAASGSNSPTRSESPEPAATCSLPSDLTRAAAGEEETAAAGSPGRKQQFGDEGELEAGRGSRGGVAVRAPSPEEMEEEAIASLPGEETEDMDFLSGLELADLLDPRQPDWHLDPGLSSPGPLSSSGGGSDSGGLWRGDDDDEAAAAEMQRFSDLLQRLLNGIGGCSSSSDSGSAEKRRRKSPGGGGGGGSGNDNNQAATKSPRKAAAAAARLNRLKKKEYVMGLESRVRGLAAENQELRAENRELGKRVQALQEESRYLRAVLANETGLARLLSRLSGVGLRLTTSLFRDSPAGDHDYALPVGKQKQDLLEEDDSAGGVCLHVDKDKVSVEFCSACARKASSSLKM
